# In article PMC13065327:
# These are yes or no findings as the source states them, for the method shown. Binding seen in cells or lysates may run through a third protein. Here binding means that the protein was enriched with, or labelled near, the bait; the list need not be complete. Sequences can lack the tags named with a protein.
# T1: Dsn1-6His-3FLAG (S. cerevisiae) (UniProt P40568)
# T1 sequence: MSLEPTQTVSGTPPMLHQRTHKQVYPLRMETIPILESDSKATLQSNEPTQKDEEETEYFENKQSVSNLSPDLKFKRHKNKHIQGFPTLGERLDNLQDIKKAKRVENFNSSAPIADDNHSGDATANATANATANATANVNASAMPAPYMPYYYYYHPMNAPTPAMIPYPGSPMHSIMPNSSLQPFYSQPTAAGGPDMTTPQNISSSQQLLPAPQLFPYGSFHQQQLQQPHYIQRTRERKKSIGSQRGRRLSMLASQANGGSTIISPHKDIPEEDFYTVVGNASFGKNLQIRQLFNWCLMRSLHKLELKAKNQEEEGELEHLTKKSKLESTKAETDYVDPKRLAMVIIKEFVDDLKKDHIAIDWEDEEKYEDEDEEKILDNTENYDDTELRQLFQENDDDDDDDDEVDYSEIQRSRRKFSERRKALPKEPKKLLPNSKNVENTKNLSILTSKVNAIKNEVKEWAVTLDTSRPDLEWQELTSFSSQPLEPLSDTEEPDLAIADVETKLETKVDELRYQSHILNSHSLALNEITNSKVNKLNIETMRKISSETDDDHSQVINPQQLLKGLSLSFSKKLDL
# B1: shugoshin (Sgo1) (protein, UniProt Q08490 1-590)
# chain: MPKRKIAPNKESSRRTVSHDDLTPQIQEFQNLMDLESQKVENIRQSYSRQNSLLAKDNSILKIKVNSLEKKISQLVQENVTLRSKTSISEAIYRERLSNQLQVIENGIIQRFDEIFYMFENVRKNENLPSSSLRTMLKRTSSRSRSCSLSSPTYSKSYTRLSNHENNLSHESSFNKDDGPDLEPKAKKRKSSRRQSMFVSTSLEPEDETGENEPMMENSSVEVPAESHESAQVEETIDALNPEEENSDSVSNFTNSIIEYSIPEENPTEPEHSSSKLEIFNDSTNMLSTVPSNPLPLPLPGPSATLPTTTSDASTVYPSSSSSTNSHPKTKIKHSMKPPRIELKKKVIDEVMPVSNMSSNSEISFTRTRRTRGKAVDYTLPSLRAKMRRPSEKLVDATTVIDIHDLQVSKRNRETSHKRKSLSQDSIPDEPQLREVVVSKDYGTPKGKKTEDEIHEDTAHLMTTSNNNSNNKNEKKLTSNNSPKKSSPLLDITNKSENKKKSTRTKKLFKNAIVNNLSDENSTTRPSKSSKGTSNNNNNYNNFDNNNSNINNVNNKSVSFRLNEDDLAVFDLFGNGKAVKHQPKTYRTKK
# B2: Zip1 (protein, UniProt P31111 1-875)
# chain: MSNFFRDSSMGFKPRPNIFAKLRVRDVDSDSSANTVVENSSNCLDVGSSIEGDDTFKKPHKTSTEQELITSMSLSQRNHGYSDDMEIGSPKKTTSTDQYNRILKNDVAAIENDTDEDFEITEVREVSEGVAKETKESHGDPNDSETTLKDSKMHEYTMTNGKAPLHTSINNSSTSSNDVLLEAFTNTQRICSNLKQELQKQQQDNAKLKVRLQSYASNSDKINEKVGKYKSCLETLQERIATLTSHKNNQETKLKDLRQNHQLYQRRISGFKTSIENLNKTINDLGKNKKEADAELMKKGKEIEYLKRELDDCSGQLSEEKIKNSSLIQEMGKNREEMIKSIENFFSEDKAHHLLQFNKFEERVHDLFEKKLQKHFDVAKDTLNVGLRNTTVELSSNTETMLKQQYEDIKENLEQKMSSSKDEMAKTINELSVTQKGLIMGVQEELLTSSGNIQTALVSEMNNTRQELLDDASQTAKNYASLENLVKAYKAEIVQSNEYEERIKHLESERSTLSSQKNQIISSLGTKEAQYEDLVKKLEAKNIEISQISGKEQSLTEKNENLSNELKKVQDQLEKLNNLNITTKSNYENKISSQNEIVKALVSENDTLKQRIQQLVEIKENEQKDHTTKLEAFQKNNEQLQKLNVEVVQLKAHELELEEQNRHLKNCLEKKETGVEESLSDVKTLKQQVIVLKSEKQDITAEKLELQDNLESLEEVTKNLQQKVQSQKRELEQKIKELEEIKNHKRNEPSKKGTQNFTKPSDSPKKNATTSNLFPNNSAAIHSPMKKCPKVDHISKSRINSSKETSKFNDEFDLSSSSNDDLELTNPSPIQIKPVRGKIKKGSNCMKPPISSRKKLLLVEDEDQSLKISKKRRRK
# B3: Fin1 (protein, UniProt Q03898 1-291)
# chain: MSNKSNRRSLRDIGNTIGRNNIPSDKDNVFVRLSMSPLRTTSQKEFLKPPMRISPNKTDGMKHSIQVTPRRIMSPECLKGYVSKETQSLDRPQFKNSNKNVKIQNSDHITNIIFPTSPTKLTFSNENKIGGDGSLTRIRARFKNGLMSPERIQQQQQQHILPSDAKSNTDLCSNTELKDAPFENDLPRAKLKGKNLLVELKKEEEDVGNGIESLTKSNTKLNSMLANEGKIHKASFQKSVKFKLPDNIVTEETVELKEIKDLLLQMLRRQREIESRLSNIELQLTEIPKHK
# B4: Csm1 (protein, UniProt P25651 1-190)
# chain: MDPLTVYKNSVKQQIDSADLLVANLVNENFVLSEKLDTKATEIKQLQKQIDSLNAQVKELKTQTSQQAENSEVIKDLYEYLCNVRVHKSYEDDSGLWFDISQGTHSGGSSDDYSIMDYKLGFVKGQAQVTEVIYAPVLKQRSTEELYSLQSKLPEYLFETLSFPLSSLNQFYNKIAKSLNKKREKKDETE
# B5: Slk19 (protein, UniProt Q08581 1-821)
# chain: MNEVPTTPVRLILGQAQQREQNSENCSQERNPRTFNSEPDSSFNSPGSSQFVIHPHEPLEKEKDEKQDLDRSIDYGRSSALNNKNNANPLENIDINKMFDDKKSDSGTNDDKGGASTSDKHVLALNYSPIRVEMNSSEKRSDKNVDVDENDKEGSHINKKLKLQLESVPDLKQSSTKDIINDKEEIMSSPMAIDMIETNISPNKFIINDGVERNDSFNINTDTLKLENDINEKQQEEDFIKSNSNNVVNIDNAYKEKEDEENDITNSHINRLTPLYETSARESNSNEEGRNDYDDDNQLDIRHDNFQIVAKRNEELTDQIYHLNQMLNSLISKNESLSFQYEKLNKNHQLLIDLTNEKLDKLNTERESDIAKVEKFKKRIKELNTEIKVLNSNQKILQEKFDASITEVNHIKGEHENTVNTLQQNEKILNDKNVELENMKAELKGNNDKLSEYETTLNDLNSRIVQLNDKIESTDIVLKSKENELDNLKLSLKETLSISKDFNDSDLIGQINELISTKNNLQQKMDDLNNLNDDNLKVVQDKLIKNEETLKLKEAEIDSLNSEMDELKKQITSKDDEFKMWQSKYETVEDEAKIRNAEVTELNGDIEDLKESKLHLEETITELENKVHKLENECELEKQKFEKTSLELESLQLKNSNIQAEHIKELENLHENLISLQNELKISSDRITTLTKENEVLMEQNNNNNNSVTLSNDQKDRDDEKIKSLGKQVQDWKEKYEAKEKDTNKRLKLLAEDLYIQYSSKHEQKVKLLKKGYENKYQNKFDQLNLENKTLSEEIEQLNKQLSSEREEKQELLKLLENEKK
# B6: Smc1 (protein, UniProt P32908 1-1225)
# chain: MGRLVGLELSNFKSYRGVTKVGFGESNFTSIIGPNGSGKSNMMDAISFVLGVRSNHLRSNILKDLIYRGVLNDENSDDYDNEGAASSNPQSAYVKAFYQKGNKLVELMRIISRNGDTSYKIDGKTVSYKDYSIFLENENILIKAKNFLVFQGDVEQIAAQSPVELSRMFEEVSGSIQYKKEYEELKEKIEKLSKSATESIKNRRRIHGELKTYKEGINKNEEYRKQLDKKNELQKFQALWQLYHLEQQKEELTDKLSALNSEISSLKGKINNEMKSLQRSKSSFVKESAVISKQKSKLDYIFKDKEKLVSDLRLIKVPQQAAGKRISHIEKRIESLQKDLQRQKTYVERFETQLKVVTRSKEAFEEEIKQSARNYDKFKLNENDLKTYNCLHEKYLTEGGSILEEKIAVLNNDKREIQEELERFNKRADISKRRITEELSITGEKLDTQLNDLRVSLNEKNALHTERLHELKKLQSDIESANNQEYDLNFKLRETLVKIDDLSANQRETMKERKLRENIAMLKRFFPGVKGLVHDLCHPKKEKYGLAVSTILGKNFDSVIVENLTVAQECIAFLKKQRAGTASFIPLDTIETELPTLSLPDSQDYILSINAIDYEPEYEKAMQYVCGDSIICNTLNIAKDLKWKKGIRGKLVTIEGALIHKAGLMTGGISGDANNRWDKEEYQSLMSLKDKLLIQIDELSNGQRSNSIRAREVENSVSLLNSDIANLRTQVTQQKRSLDENRLEIKYHNDLIEKEIQPKITELKKKLDDLENTKDNLVKEKEALQNNIFKEFTSKIGFTIKEYENHSGELMRQQSKELQQLQKQILTVENKLQFETDRLSTTQRRYEKAQKDLENAQVEMKSLEEQEYAIEMKIGSIESKLEEHKNHLDELQKKFVTKQSELNSSEDILEDMNSNLQVLKRERDGIKEDIEKFDLERVTALKNCKISNINIPISSETTIDDLPISSTDNEAITISNSIDINYKGLPKKYKENNTDSARKELEQKIHEVEEILNELQPNARALERYDEAEGRFEVINNETEQLKAEEKKILNQFLKIKKKRKELFEKTFDYVSDHLDAIYRELTKNPNSNVELAGGNASLTIEDEDEPFNAGIKYHATPPLKRFKDMEYLSGGEKTVAALALLFAINSYQPSPFFVLDEVDAALDITNVQRIAAYIRRHRNPDLQFIVISLKNTMFEKSDALVGVYRQQQENSSKIITLDLSNYAE
# B7: Casein kinase 1 (CK1/Hrr25) (enzyme, UniProt P29295 1-494)
# chain: MDLRVGRKFRIGRKIGSGSFGDIYHGTNLISGEEVAIKLESIRSRHPQLDYESRVYRYLSGGVGIPFIRWFGREGEYNAMVIDLLGPSLEDLFNYCHRRFSFKTVIMLALQMFCRIQYIHGRSFIHRDIKPDNFLMGVGRRGSTVHVIDFGLSKKYRDFNTHRHIPYRENKSLTGTARYASVNTHLGIEQSRRDDLESLGYVLIYFCKGSLPWQGLKATTKKQKYDRIMEKKLNVSVETLCSGLPLEFQEYMAYCKNLKFDEKPDYLFLARLFKDLSIKLEYHNDHLFDWTMLRYTKAMVEKQRDLLIEKGDLNANSNAASASNSTDNKSETFNKIKLLAMKKFPTHFHYYKNEDKHNPSPEEIKQQTILNNNAASSLPEELLNALDKGMENLRQQQPQQQVQSSQPQPQPQQLQQQPNGQRPNYYPEPLLQQQQRDSQEQQQQVPMATTRATQYPPQINSNNFNTNQASVPPQMRSNPQQPPQDKPAGQSIWL
# B8: Red1 (protein, UniProt P14291 1-827)
# chain: MEGLKKKIFGVCLKNDLAQTRNETKGIHYGLMTLETSKQLQEFLHLLVIKREVIQNFELLFHIINVAVKITDSNLPSDDIWHFILKLRFSSEINIDEDSKVLNYLLETGIAMENPVSWKCLAVISSILSSVPQSKKIITNLIETEHAKKIGQLFDNIQDLQQGNFLVEILSNCFKKSASNSKKVEKIPQLWQSRSKNKFFFENEFYPFSSKNGSLQTCQFLCNNFMSTLSFTGILRQVSYSGSETLKNLRIFKKKDDENSYFIQCIYNKIYLWLDEKAPLEFERKKIRITKNLKNKIQIKLRQPFHECVRTTADKTALLFNKTKGFQLEFEDEKLGETFFHNVNNIPKISEVQNFLVLDYIEEEPENEGEEEEQIGRADEQKEDEEEESLDELSTPMVYPIKSSIPHNHNEKVQLVTPDRSVSIRSDEWDLKSNTEDEEGNVLADLKISSTKETKRQTDYVHIDSEDQSPVVSAQMRKMRRESTKTLEILRQEFKDKDVQNKEDQSEQIQNPFVNTSSLVVGKSCLVNPKEKPNIDQTVVGITELKSNSSIKKRDINILDTIFGQPPSKKQKQFHKKEKKKQQKKLTNFKPIIDVPSQDKRNLRSNAPTKPKSIKVSKLRTDKKVTGEKSSPETAAEKVDDQTVRSNDEQAMSRATKEKCFPDVNEGKEITKDDAKVSLESKKNNETFVDSSVVEKHTPPDKDCNNCNITDILESTTVIDLQSPHGLSAPGQNTFTNKLQEQIYSSINHFSNELVRKISIINQELNKKILKELSEKYQKLFSELQDNFQNDTNEMLKFMGEIKDMMNLPEDQLVHAIRTRKFDNNKR
# Molecular target: T1, Dsn1-6His-3FLAG (S. cerevisiae)
# Test: affinity purification with mass spectrometry; anti-FLAG antibody on Protein G Dynabeads, Dsn1-6His-3FLAG from lysates of SK1 cells at mitotic metaphase, meiotic prophase, metaphase I and metaphase II (SynSAC, 250 uM ABA); BH0.15 buffer (150 mM KCl, 25 mM HEPES-KOH pH 8.0, 2 mM MgCl2, 0.1% NP-40), 3 hr at 4 C; DIA-MS of eluates, 95% phospho-enriched; no tag control
row,binding,Binder
1,binds,B1
2,binds,B2
3,binds,B3
4,binds,B4
5,binds,B5
6,binds,B6
7,binds,B7
8,binds,B8
